Results reported in paper PMC10929199.
These are yes or no findings as the source states them, for the method shown. Binding seen in cells or lysates may run through a third protein. Some results given as binding are weak or reduced against the parent protein; the word gives no strength.

Protein sequences, listed by entry. Tags and fused reporters are not part of them.
UniProt O35253: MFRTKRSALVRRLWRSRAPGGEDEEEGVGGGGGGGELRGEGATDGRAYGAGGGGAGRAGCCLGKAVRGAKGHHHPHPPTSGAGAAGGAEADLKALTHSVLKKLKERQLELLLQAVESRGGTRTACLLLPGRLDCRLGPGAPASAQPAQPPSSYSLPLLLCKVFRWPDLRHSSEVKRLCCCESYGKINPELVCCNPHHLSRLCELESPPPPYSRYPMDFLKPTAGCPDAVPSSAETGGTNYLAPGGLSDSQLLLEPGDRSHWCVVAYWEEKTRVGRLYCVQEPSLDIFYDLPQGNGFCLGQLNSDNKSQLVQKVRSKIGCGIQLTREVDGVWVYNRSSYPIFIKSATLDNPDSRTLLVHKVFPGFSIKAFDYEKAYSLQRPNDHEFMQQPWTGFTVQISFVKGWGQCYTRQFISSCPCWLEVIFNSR

What was measured:
[1] = target: T1, Carbonic anhydrase 3 (mouse (endogenous in adult mouse cardiac fibroblasts and mouse heart tissue)) (UniProt P16015); assay: co-IP; lysates of cultured adult mouse cardiac fibroblasts (with or without TGF-β1; WT and Car3-deficient), 800 μg, IP with anti-CAR3 antibody overnight at 4°C and protein G agarose, blot with anti-Smad7; IgG as negative control; lysis buffer 20 mM Tris pH 7.5, 150 mM NaCl, 1 mM EDTA, 1% Nonidet P-40, 5% glycerol
T1 sequence: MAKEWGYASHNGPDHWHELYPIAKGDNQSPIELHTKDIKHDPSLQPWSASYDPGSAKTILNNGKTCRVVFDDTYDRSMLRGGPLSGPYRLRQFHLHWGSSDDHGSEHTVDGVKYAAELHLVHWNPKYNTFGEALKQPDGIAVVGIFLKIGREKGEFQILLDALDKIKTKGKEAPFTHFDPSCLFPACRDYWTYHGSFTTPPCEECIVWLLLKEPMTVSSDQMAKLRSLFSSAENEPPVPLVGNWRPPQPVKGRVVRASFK

[2] = target: T1, Carbonic anhydrase 3 (mouse (endogenous in adult mouse cardiac fibroblasts and mouse heart tissue)); assay: co-IP; lysates of mouse heart tissue from the infarct (sham or MI; WT and Car3-deficient), 800 μg, IP with anti-CAR3 antibody overnight at 4°C and protein G agarose, blot with anti-Smad7; IgG as negative control; lysis buffer 20 mM Tris pH 7.5, 150 mM NaCl, 1 mM EDTA, 1% Nonidet P-40, 5% glycerol

Substance: Smad7 (from UniProt O35253 1-426)
- binding [1]: binds
- binding [2]: binds
